# Laboratory results taken from PubChem BioAssay AID504327 (National Center for Advancing Translational Sciences (NCATS), 2011).
# Sequences of proteins named here, by UniProt entry; tags and fusion partners are left off.
# UniProt Q92830, whole entry, looked up: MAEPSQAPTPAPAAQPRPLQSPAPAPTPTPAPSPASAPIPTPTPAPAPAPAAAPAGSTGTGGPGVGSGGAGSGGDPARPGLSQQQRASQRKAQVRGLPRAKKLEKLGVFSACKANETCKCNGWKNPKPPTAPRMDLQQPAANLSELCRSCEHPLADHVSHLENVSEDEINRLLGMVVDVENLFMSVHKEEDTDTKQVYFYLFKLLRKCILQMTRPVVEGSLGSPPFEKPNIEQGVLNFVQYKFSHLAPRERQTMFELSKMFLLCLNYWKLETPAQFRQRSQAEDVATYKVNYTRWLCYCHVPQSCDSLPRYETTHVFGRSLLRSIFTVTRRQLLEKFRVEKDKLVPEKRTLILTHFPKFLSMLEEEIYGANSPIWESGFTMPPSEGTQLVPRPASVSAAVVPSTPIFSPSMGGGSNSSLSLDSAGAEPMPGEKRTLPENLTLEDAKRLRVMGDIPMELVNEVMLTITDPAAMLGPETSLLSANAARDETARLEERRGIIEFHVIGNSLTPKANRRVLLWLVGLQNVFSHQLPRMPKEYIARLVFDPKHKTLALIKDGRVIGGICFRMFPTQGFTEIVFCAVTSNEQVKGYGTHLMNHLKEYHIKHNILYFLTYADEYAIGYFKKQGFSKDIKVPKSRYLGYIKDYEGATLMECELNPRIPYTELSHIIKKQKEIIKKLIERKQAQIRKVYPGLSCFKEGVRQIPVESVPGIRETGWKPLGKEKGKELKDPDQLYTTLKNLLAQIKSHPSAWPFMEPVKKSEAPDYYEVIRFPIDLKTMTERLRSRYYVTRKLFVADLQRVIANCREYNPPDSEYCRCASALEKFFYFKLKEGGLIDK
# About 820 (0.21%) of roughly 390,000 compounds were called active. Inconclusive results, whose numbers are uncertain, are shown with a selection of clear calls. Calls follow the shape of the dose curve; as a rule, active = well fitted inhibition curve with a large enough effect; inconclusive = small, poorly fitted or top-dose-only effect, or another doubt; inactive = no such curve, though single readings can be large or run the other way. Where the call is inconclusive, the potency comes from a doubtful curve fit.
# Molecular target: Histone acetyltransferase KAT2A (Homo sapiens) (UniProt Q92830)
# Test: qHTS Assay for Inhibitors of GCN5L2
# Settings: GCN5L2 HAT assay, ThioGlo1 CoA-SH fluorescence; activity change, negative = inhibition: at 58.9 µM (top of the series) unless noted
# Summary of the method: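 ThioGlo1-coupled HAT assay: 20nM GCN5L2, 70uM acetyl-CoA, 75uM H3(1-25) peptide, pH 7.5. Fluorescence read at 340/540nm at start and after 20 min at room temperature.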
# % is scaled to controls: 0 for no effect and ±100 for the full control effect; potency is read from the fitted curve at half-maximal effect.
SMILES,Potency,"activity change, negative = inhibition"
O=C(CSc1nnnn1-c1cccc(C(=O)O)c1)NC(c1ccccc1)c1ccccc1,"inconclusive: 5.62 µM [inhibitor, single point]",
O=C(NC1CCCC1)C(c1ccc(Cl)cc1)N1CCc2ccccc21 (stereo not drawn),"inconclusive: 39.8 µM [inhibitor, single point]",
CC(=O)C(C(C)=O)C(c1ccccc1)c1nc2ccccc2[nH]c1=O (stereo not drawn),,inactive: 0.365%
COCCCn1c(=N)c(C(=O)NCC2CCCO2)cc2c(=O)n3cccc(C)c3nc21 (stereo not drawn),"inconclusive: 12.6 µM [inhibitor, partial curve, poor fit]",
CC(CNC(=O)c1cnn(-c2ccc(F)cc2)c1-n1cccc1)c1ccccc1 (stereo not drawn),,inactive: -5.83%
CC1(OC(=O)CCc2ccccc2)C(=O)C=C2C=C(c3ccc(C#N)cc3)N(C(CO)CO)C=C2C1=O (stereo not drawn),,inactive: 2.31%
Cc1cc(C)c2nc(N3C(=O)C(O)=C(C(=O)c4ccco4)C3c3ccco3)sc2c1 (stereo not drawn),"inconclusive: 31.6 µM [inhibitor, single point]",
Nc1c(/C=C2/C=CC(=O)C(O)=C2)c(=O)nc2sc(CC(=O)N3CCCCC3)nn12,"inconclusive: 39.8 µM [inhibitor, single point]",
COc1ccc(Cc2nnc(N)s2)cc1,,inactive: 0%
Cc1cc(NS(=O)(=O)c2ccc(Nc3nc(-c4ccc(C)c(C)c4)cs3)cc2)no1,,inactive: 3.03%
CCC(C)N(C(=O)COc1ccccc1C(=O)NCc1ccccc1)C1CCS(=O)(=O)C1 (stereo not drawn),,inactive: -0.572%
Cc1cc(NC(=O)c2cc(-c3ccc(C)s3)nc3ccccc23)no1,active: 28.2 µM,
COc1ccc(NC(=O)COc2coc(CN3CCCc4ccccc43)cc2=O)cc1,"inconclusive: 39.8 µM [inhibitor, single point]",
CSc1cccc(NC(=O)CSc2ncccc2C(=O)Oc2cccc([N+](=O)[O-])c2)c1,"inconclusive: 2.82 µM [inhibitor, partial curve, poor fit]",
Cc1nnc2c3ccccc3c(-c3ccc(O)cc3)nn12,"inconclusive: 39.8 µM [inhibitor, single point]",
Nc1ncn([C@@H]2O[C@H](CO)[C@@H](O)[C@H]2O)c(=O)n1,"inconclusive: 31.6 µM [inhibitor, single point]",
COc1cccc(NC(=O)c2cc(S(=O)(=O)N3CCc4ccccc43)cn2C)c1,"inconclusive: 7.08 µM [inhibitor, single point]",
COc1cccc(CCN2CCC(CNS(=O)(=O)c3cc(-c4cc(C)no4)ccc3OC)CC2)c1,"inconclusive: 0.794 µM [inhibitor, single point]",
CC[C@@H](C)[C@H](NC(=O)Cc1c(C)c2cc3c(C)c(C)oc3c(C)c2oc1=O)C(=O)O,"inconclusive: 39.8 µM [inhibitor, single point]",

# Molecules above that have two or more sulfur atoms:
SMILES,Potency,"activity change, negative = inhibition"
Cc1cc(NS(=O)(=O)c2ccc(Nc3nc(-c4ccc(C)c(C)c4)cs3)cc2)no1,,inactive: 3.03%
CSc1cccc(NC(=O)CSc2ncccc2C(=O)Oc2cccc([N+](=O)[O-])c2)c1,"inconclusive: 2.82 µM [inhibitor, partial curve, poor fit]",

# Additional compounds:

SMILES,Potency,"activity change, negative = inhibition"
Cc1ccc([C@H]2C(C(=O)O)=CC[C@@H](c3ccc(Cl)c(Cl)c3)N2S(=O)(=O)c2ccc(C)cc2)cc1,"inconclusive: 28.2 µM [inhibitor, single point]",
Cc1sc2nc(CC(=O)NN)[nH]c(=O)c2c1C,,inactive: -3.28%
NC(=O)C1CCN(C(=O)CC(c2ccccc2)c2ccccc2)CC1,active: 31.6 µM,
Cc1[nH]c2ccc(-c3n[nH]c(=S)n3Cc3ccccc3)cc2c1C,,inactive: -4.78%
Cc1ccccc1S(=O)c1ccccc1C(=O)O (stereo not drawn),"inconclusive: 8.91 µM [inhibitor, single point]",
OC[C@@H]1[C@@H](c2ccc(F)cc2)C(c2cccc(Cl)c2)=NN1c1ccccc1,inactive,
CC(OC(=O)/C=C/c1cccc(Cl)c1)C(=O)NC1CCCCC1C (stereo not drawn),"inconclusive: 28.2 µM [inhibitor, single point]",
Cc1ccc(-c2cnc(-c3ccncc3)o2)cc1,"inconclusive: 20 µM [inhibitor, partial curve]",
O=C(Cc1ccccc1)NNC(=O)Nc1ccc(Cl)c(Cl)c1,,inactive: -2.24%
COCCn1c(=O)c(-c2cccs2)nc2cnc(OC)nc21,"inconclusive: 3.16 µM [inhibitor, full curve, poor fit]",
CC1(C)OC(=O)C(=Cc2ccc(-c3ccc(Cl)c(C(=O)O)c3)o2)C(=O)O1,"inconclusive: 25.1 µM [inhibitor, single point]",
CC(=O)c1ccc(S(=O)(=O)NC(=O)NC2CCCCC2)cc1,"inconclusive: 31.6 µM [inhibitor, single point]",
N#CC1=C(SCc2ccccc2)NC2=C(C(=O)CCC2)C1c1ccc2c(c1)OCO2 (stereo not drawn),"inconclusive: 31.6 µM [inhibitor, single point]",
Cc1ccc(-n2ncc(C(=O)NCc3ccc4c(c3)OCO4)c2C2CCN(C(=O)OC(C)(C)C)CC2)c(C)c1,"inconclusive: 3.98 µM [inhibitor, full curve, poor fit]",
CC(=O)c1cccc(NC(=O)c2csc(-n3nc(C)cc3C(F)(F)F)n2)c1,"inconclusive: 2.24 µM [inhibitor, single point]",
Cc1ccc(C(=O)COC(=O)CCC(=O)Nc2ccc(Oc3ccccc3)cc2)cc1,,inactive: -3.46%
C#CCn1cc(Cl)cc(C(=O)Nc2ccccc2)c1=O,"inconclusive: 8.91 µM [inhibitor, single point]",
CC(C)C[C@H](NC(=O)CNC(=O)[C@H](CCC(N)=O)NC(=O)[C@H](CC(C)C)NC(=O)[C@H](CC(C)C)NC(=O)[C@H](CCCNC(=N)N)NC(=O)[C@H](CCC(N)=O)NC(=O)[C@H](CC(C)C)NC(=O)[C@H](CCCNC(=N)N)NC(=O)[C@H](C)NC(=O)CNC(=O)[C@H](CCC(=O)O)NC(=O)[C@H](CCCNC(=N)N)NC(=O)[C@H](CC(C)C)NC(=O)[C@H](CCCNC(=N)N)NC(=O)[C@H](CO)NC(=O)[C@H](CC(C)C)NC(=O)[C@H](CCC(=O)O)NC(=O)[C@H](CO)NC(=O)[C@@H](NC(=O)[C@H](Cc1ccccc1)NC(=O)[C@@H](NC(=O)CNC(=O)[C@H](CC(=O)O)NC(=O)[C@H](CO)NC(=O)[C@@H](N)Cc1cnc[nH]1)[C@@H](C)O)[C@@H](C)O)C(=O)N[C@H](C(N)=O)C(C)C,,inactive: 49.5%
CN(Cc1c(F)cccc1Cl)C(=O)CNC(=O)c1sc2ccccc2c1Cl,,inactive: -14.4%
